Source: PubChem BioAssay AID504467 (National Center for Advancing Translational Sciences (NCATS), 2011)
Among all 330,000 compounds or so, about 7,700 (2.3%) were called active. This list was built around the results that the source calls inconclusive (neither active nor inactive); the mix of calls is not that of the screen. Calls come from the whole dose curve; as a rule, active = well fitted inhibition curve with a large enough effect; inconclusive = small, poorly fitted or top-dose-only effect, or effect the other way; inactive = flat fitted curve, though single readings scatter. Where the call is inconclusive, the potency comes from a doubtful curve fit.

assay: qHTS screen for small molecules that inhibit ELG1-dependent DNA repair in human embryonic kidney (HEK293T) cells expressing luciferase-tagged ELG1; conditions: HEK293T ELG1-luciferase reporter, luminescence, 16 h, DNA damage induced by 5-fluorouridine; series mostly up to 46.1 µM; note: nearly all actives have a fitted effect of over 55% in size
Procedure, shortened: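 Reporter activity after DNA damage by 5-fluorouridine is monitored. Compound-treated cells incubate 16 hr at 37 °C, then ONE-Glo is added for 30 min before luminescence reading.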
Potency is the fitted concentration of half-maximal effect.

Row | SMILES | Potency
1 | O=C(NC1CCCC1)c1nc2c(nnn2Cc2ccccc2Cl)c(=O)[nH]1 | inconclusive: 32.6 µM [inhibitor, single point]
2 | Fc1ccc(-n2c(Cc3cccs3)n[nH]c2=S)cc1Cl | inactive
3 | O=C(Cn1c(-c2cscn2)nc2ccccc21)Nc1ccc(Cl)cc1 | inconclusive: 29.1 µM [inhibitor, single point]
4 | O=C(Nc1ccn(Cc2ccccc2F)n1)c1ccc(COc2ccccc2Cl)cc1 | inconclusive: 20.6 µM [inhibitor, partial curve]
5 | O=C(CNC(=O)c1ccc(Cl)cc1Cl)OCc1nnc(-c2ccccc2Br)o1 | inconclusive: 20.6 µM [activator, partial curve, poor fit]
6 | Cc1ccc(S(=O)(=O)/N=C(\CCl)N2CCOCC2)cc1 | active: 14.6 µM
7 | CC(=O)Nc1cccc(-c2nc3ccccc3[nH]2)c1 | inconclusive: 20.6 µM [activator, single point]
8 | CN/N=C(\Cc1nc2ccccc2[nH]1)c1ccc([N+](=O)[O-])cc1 | inactive
9 | CC(C)=CC1C=C(C)C(C)C2C(=O)NNC(=O)C12 (stereo unspecified) | inconclusive: 6.51 µM [inhibitor, partial curve, poor fit]
10 | C/C(=N\NC(=O)COc1cc(C)cc(C)c1)c1cccc(NC(=O)C2CCC2)c1 | inactive
11 | O=C(O)c1cccc(COc2ccc(CO)cc2Cl)c1 | inconclusive: 2.59 µM [inhibitor, full curve, poor fit]
12 | CCOc1cc(NC(=S)NCC(C)C)c(OCC)cc1NC(=O)c1cccs1 | inactive
13 | O=c1sc2ccccc2n1CCOc1ccccc1 | inconclusive: 14.6 µM [activator, partial curve]
14 | O=C(Nc1cccc(-c2nn[nH]n2)c1)c1cccs1 | inconclusive: 9.2 µM [activator, partial curve]
15 | O=C1c2ccccc2C(=O)N1CCCc1nc(-c2ccccn2)no1 | inconclusive: 18.4 µM [activator, single point]
16 | O=C(NCc1ccccc1)C1=C[C@H](c2csc3ccccc23)C[C@H](OCCCCO)O1 | inconclusive: 18.3 µM [inhibitor, partial curve]
17 | CC1=C(C(=O)Nc2ccccc2)C(c2cccs2)NC(=O)N1 (stereo unspecified) | inactive
18 | O=C(/C=C/c1ccc([N+](=O)[O-])cc1)NCCSc1ccccc1 | inconclusive: 14.6 µM [inhibitor, single point]
19 | O=c1cc[nH]c2c(Cl)cccc12 | inconclusive: 20.6 µM [activator, partial curve]
20 | COc1cc(NC(=O)CNc2ccc(Cl)c(S(=O)(=O)N3CCOCC3)c2)cc(OC)c1 | inconclusive: 29.1 µM [inhibitor, single point]
21 | CC(Oc1ccccc1)C(=O)Nc1nc(-c2ccccn2)cs1 (stereo unspecified) | inconclusive: 5.17 µM [inhibitor, single point]
22 | COc1ccccc1C(=O)NCC(=O)OCc1csc(-c2ccccc2)n1 | inconclusive: 20.6 µM [activator, single point]
23 | Cn1c(=O)c2c(nc(CN3CCN(c4ccccc4)CC3)n2Cc2ccccc2Cl)n(C)c1=O | inconclusive: 5.8 µM [inhibitor, full curve]

Row | SMILES | Potency
24 | O=C(CSc1ccc(-c2nc3ccccc3[nH]2)cn1)N1CCN(C(=O)c2ccco2)CC1 | active: 16.4 µM
25 | Cc1cc(OCCN2CCOCC2)ccc1[N+](=O)[O-] | inconclusive: 14.6 µM [activator, partial curve]
26 | CCn1cc(Cl)c(C(=O)Nc2c(C)nn(Cc3c(F)c(F)c(F)c(F)c3F)c2C)n1 | inactive
27 | C=C(C)CNC(=S)N/N=C/c1ccc(NC(C)=O)cc1 | inactive
28 | CCN(Cc1nc(-c2ccccc2)no1)C(=O)c1ccc2c(c1)OCO2 | inactive
29 | COC(=O)N/N=C/c1cn(Cc2ccccc2Cl)c2ccccc12 | inactive
30 | N#Cc1ccccc1OCC(=O)OCC(=O)N1CCN(C(=O)c2ccco2)CC1 | inactive
31 | Cn1c(=O)cc(SCC(=O)NCc2ccco2)c2ccccc21 | inactive
32 | COc1ccc2c(c1)O/C(=C\c1ccccc1C)C2=O | inconclusive: 23.1 µM [activator, single point]
33 | Cc1nc(Nc2ccccc2)sc1-c1ccccc1 | inconclusive: 1.46 µM [activator, partial curve]
34 | COc1cc(/C=C2\SC(=O)N(c3cccc(Cl)c3)C2=O)cc([N+](=O)[O-])c1O | inactive
35 | Cn1c(-c2ccc3c(c2)OCO3)cnc1NC(=O)CCC(=O)NCCc1ccccc1 | inconclusive: 32.6 µM [activator, partial curve, poor fit]
36 | Cc1ccc(S(=O)(=O)N2CCOCC2)cc1C(=O)N1CCN(c2ncccn2)CC1 | inactive
37 | CCOC(=O)[C@@H]1[C@H]2COc3ccc(Br)cc3[C@H]2N2C(=O)N(c3cccc(F)c3)C(=O)[C@]12C | inconclusive: 1.16 µM [inhibitor, single point]
38 | O=C(CSc1nc2nn(-c3ccccc3)c(=O)c-2c2n1CCCCC2)Nc1cccc(F)c1 | inconclusive: 29.1 µM [inhibitor, single point]
39 | CC(=O)c1c(C)[nH]c(C(=O)COC(=O)c2cccs2)c1C | inconclusive: 18.3 µM [activator, partial curve]
40 | C=C(C)CN(CC)C(=O)CN1C(=O)NC(C)(c2ccc3ccccc3c2)C1=O (stereo unspecified) | inactive
41 | CN1CCN(c2ccc(S(=O)(=O)N3CCOCC3)cc2NC(=O)COc2ccc(F)cc2Cl)CC1 | inactive
42 | COc1ccc(-c2ccc(N(C)C)cc2)cc1[C@H]1[C@@H]2C=CCC[C@@]2(C)C(=O)N1Cc1ccccc1 | inconclusive: 18.3 µM [inhibitor, partial curve]
43 | COc1ccc(CN2C(=O)CS/C2=N/N=C/c2ccccc2)cc1 | inactive
44 | COc1ccc(CNC2CC(C)N(C)CC2C)cc1OC (stereo unspecified) | inactive
45 | O=C(CSc1nc2ccccc2c(=O)n1CCCN1CCOCC1)Nc1cccc(S(=O)(=O)N2CCCCCC2)c1 | inconclusive: 23.1 µM [inhibitor, partial curve]
46 | Cc1cc(N2CCC(C)CC2)nc(-n2nc(C)cc2C)n1 | inconclusive: 2.31 µM [inhibitor, full curve, poor fit]

Given in markdown: entries from further up.

| Row | SMILES | Potency |
| --- | --- | --- |
| 33 | Cc1nc(Nc2ccccc2)sc1-c1ccccc1 | inconclusive: 1.46 µM [activator, partial curve] |
| 34 | COc1cc(/C=C2\SC(=O)N(c3cccc(Cl)c3)C2=O)cc([N+](=O)[O-])c1O | inactive |
